Reference: the supplement of paper PMC12889115
This is one part of the list. Values are raw readings; no control value is given beside them.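 In the initial screen, polymyxin B was used at a concentration that permeabilizes Salmonella's outer membrane but not its inner membrane. Maximum growth was set by DMSO wells with or without polymyxin B. Since plates varied, data were ranked per plate, and compounds giving the lowest OD600 advanced as hits.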

System: Salmonella enterica serovar Typhimurium SL1344
Experiment: bacterial growth OD600 after 18 h with compound and polymyxin B; higher = more bacterial growth (less inhibition)
Conditions: 50 µM, Mueller-Hinton broth

| SMILES | bacterial growth OD600 (polymyxin B 0.75 µg/mL) | bacterial growth OD600 (polymyxin B 1 µg/mL) |
| --- | --- | --- |
| CC(C)NC(=O)NCc1cccnc1Oc1ccccc1F | 0.805 |  |
| CCC1CN(CC(=O)NCCCc2cccnc2)Cc2cc(OC)ccc2O1 (stereo unspecified) | 0.835 |  |
| Cc1nc(N(C)C2CCCCC2)ncc1C(C)NCc1nc(C)c(C)nc1C (stereo unspecified) | 0.475 |  |
| CC(C)CCC1(C2CCN(C(=O)/C(F)=C/c3ccccc3)CC2)NC(=O)N(Cc2ccccn2)C1=O (stereo unspecified) | 0.001 |  |
| COc1cc(CC2(CCC(=O)N3CC4(C)CC3CC(C)(C)C4)CCC(=O)N2)ccc1F (stereo unspecified) | 0.953 |  |
| Cc1nc(CC(=O)NC2CCCc3c2cnn3-c2ccc(F)cc2F)cs1 (stereo unspecified) | 0.776 |  |
| O=C(NCc1cccc(Cl)c1)c1cccc(OC2CCN(C(=O)C3CC3)CC2)c1 |  | 0.796 |
| CCN(CC1CCCO1)C(=O)C1CCCN(c2nc(C)c3ccc(OC)cc3n2)C1 (stereo unspecified) | 0.637 |  |
| CCC(=O)N1CCC(C(=O)Nc2cccc(-c3nnc(C)s3)c2)CC1 |  | 0.876 |
| O=C(NC1CCCC1)C1CCN(C2CCN(CCCc3ccccc3)CC2)CC1 | 0.932 |  |
| COc1ccccc1CN1CCCC(CN(CCN(C)C)C(=O)c2ccco2)C1 (stereo unspecified) | 0.869 |  |
| O=C(CN1Cc2ccccc2OC(c2ccsc2)C1)NCc1nc(-c2ccccc2)cs1 (stereo unspecified) | 0.05 |  |
| O=C(Nc1ccnn1C1CCN(C(=O)CCn2cnc3ccccc32)CC1)C1CC1 |  | 0.996 |
| CN(Cc1ccccc1)Cc1cc(C(=O)NCc2cccc(Cl)c2)no1 |  | 0.89 |
| Cc1ccc(CN(C)c2ccc(C(=O)NCc3noc(C(C)C)n3)cn2)o1 |  | 1.29 |
| COc1cc2c(cc1CN1CC[C@@H](N3CCN(C)CC3)[C@H](O)C1)OCO2 |  | 1.09 |

As entered above:
Entry of O=C(NCc1cccc(Cl)c1)c1cccc(OC2CCN(C(=O)C3CC3)CC2)c1 under bacterial growth OD600 (polymyxin B 1 µg/mL): 0.796
Entry of Cc1ccc(CN(C)c2ccc(C(=O)NCc3noc(C(C)C)n3)cn2)o1 under bacterial growth OD600 (polymyxin B 1 µg/mL): 1.29

More compounds.

| SMILES | bacterial growth OD600 (polymyxin B 0.75 µg/mL) | bacterial growth OD600 (polymyxin B 1 µg/mL) |
| --- | --- | --- |
| CC(NC(=O)CCc1nnc(-c2ccc3c(c2)OCO3)o1)c1ccc(Cl)cc1 (stereo unspecified) |  | 0.767 |
| O=C(CCc1cn2ccccc2n1)NC1CCCN(CCc2ccccc2)C1 (stereo unspecified) |  | 1.22 |
| CC(Nc1nc2nonc2nc1N1CCCCCC1)c1cnn(C)c1 (stereo unspecified) |  | 0.799 |
| CCC1C(=O)NCCN1C(=O)CC1(c2cccc(C(F)(F)F)c2)CC(=O)N(CC)C1=O (stereo unspecified) | 0.873 |  |
| Cc1ccccc1CC(C1CCN(C(=O)c2ccc(N(C)C)cc2)CC1)N(C)C(=O)Cn1cccn1 (stereo unspecified) | 0.825 |  |
| COC1CCN(c2ccc(C(=O)NCCC3COc4ccccc4O3)cn2)CC1 (stereo unspecified) |  | 0.856 |
| COc1cccc(CCC2CCCN(Cc3ncc[nH]3)C2)c1 (stereo unspecified) | 0.715 |  |
| CCOCC(=O)N1CCC(C2CCN(Cc3cccc(F)c3F)CC2)C1 (stereo unspecified) | 0.86 |  |
| Cc1nc(-c2ccncc2)ncc1C(C)NC(=O)c1cc2ccccc2[nH]1 (stereo unspecified) | 0.856 |  |
| CN1CCCC2(CCN(C(=O)CCCc3ccccc3)C2)C1=O (stereo unspecified) |  | 0.945 |
| O=C(Nc1ccc(-c2cccc(F)c2)cc1)C1CCCN(C(=O)c2ccoc2)C1 (stereo unspecified) | 0.656 |  |
| O=C(C1CCCN(Cc2nc(Cc3cccc(C(F)(F)F)c3)no2)C1)N1CCOCC1 (stereo unspecified) |  | 0.925 |
| COc1ccc(C2(C(=O)N3CC[C@@H](N4CCN(C)CC4)[C@H](O)C3)CCCC2)cc1 |  | 0.927 |
| CC(=O)c1cc(CN2CCC(n3nccc3NC(=O)C3CCCC3)CC2)cs1 | 0.825 |  |
| COc1cccc(CN2C(=O)NC(C)(C3CCN(C(=O)c4ccccc4Cl)CC3)C2=O)c1OC (stereo unspecified) | 0.816 |  |
